Measured values reported in publication doi:10.1101/2021.09.17.460294.
No constants are given. Whether binding was seen depends on the method and setting. In cells and extracts the contact can be indirect. A result given as binding can be weak or reduced; the word gives no strength. Tags and fused reporters may be left off the sequences shown.

Target: T1, GST-LKB1 (UniProt Q15831)
T1 sequence: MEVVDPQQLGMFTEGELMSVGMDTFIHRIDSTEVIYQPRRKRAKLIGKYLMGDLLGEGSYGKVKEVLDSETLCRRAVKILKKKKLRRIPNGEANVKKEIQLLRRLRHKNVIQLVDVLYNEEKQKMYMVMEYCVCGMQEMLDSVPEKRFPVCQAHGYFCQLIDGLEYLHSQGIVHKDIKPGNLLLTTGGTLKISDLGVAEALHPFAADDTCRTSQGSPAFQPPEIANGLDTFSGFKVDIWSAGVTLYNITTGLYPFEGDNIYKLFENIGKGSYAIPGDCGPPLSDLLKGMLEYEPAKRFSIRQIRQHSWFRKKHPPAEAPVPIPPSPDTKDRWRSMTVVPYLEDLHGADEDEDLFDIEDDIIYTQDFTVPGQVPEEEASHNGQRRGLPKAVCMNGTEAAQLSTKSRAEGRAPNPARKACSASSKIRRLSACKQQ
Experiment: pull-down

## Venus-flag (VF)-tagged cIAP1 N-terminal truncation (N) (domain or fragment)
  binding: binds
